Assay results: BigSolDB 2.1

COc1ccc2cc([C@H](C)C(=O)O)ccc2c1
solubility (mole fraction)
Conditions | 293.2 K | 298.2 K | 303.2 K | 308.2 K | 313.2 K
in ethanol | 0.0107 | 0.0117 | 0.0129 | 0.0139 | 0.0153
in ethylene glycol | 0.00304 | 0.0037 | 0.00438 | 0.00497 | 0.00562
